{"source": "paper PMC5996148", "assay_in_all_cases": "protein microarray (ProtoArray v5.0), streptavidin-Alexa Fluor 647", "conditions_in_all_cases": "3'-biotin; 20 mM Tris (pH 7.5), 5 mM MgCl2, 100 mM KCl, 0.1% Tween-20, A/T-rich and random oligonucleotide blockers; temperature not stated; high values mean tight binding", "key": {"UBE2F (human)": {"system": "UBE2F (human)"}, "UBE2G2 (human)": {"system": "UBE2G2 (human)"}, "UBE2H (human)": {"system": "UBE2H (human)"}, "UBE2L6 (human)": {"system": "UBE2L6 (human)"}, "UBE2O (human)": {"system": "UBE2O (human)"}, "UBE2R2 (human)": {"system": "UBE2R2 (human)"}, "UBE2T (human)": {"system": "UBE2T (human)"}, "UBE2Z (human)": {"system": "UBE2Z (human)"}, "UBE3C (human)": {"system": "UBE3C (human)"}, "UBIAD1 (human)": {"system": "UBIAD1 (human)"}, "UBL3 (human)": {"system": "UBL3 (human)"}, "UBOX5 (human)": {"system": "UBOX5 (human)"}, "UBQLN1 (human)": {"system": "UBQLN1 (human)"}, "UBQLN2 (human)": {"system": "UBQLN2 (human)"}, "UBR2 (human)": {"system": "UBR2 (human)"}, "UBTD2 (human)": {"system": "UBTD2 (human)"}, "[1]": {"system": "UBX domain-containing protein 7 (human)"}, "UBXD1 (human)": {"system": "UBXD1 (human)"}, "UBXD3": {"molecular_target": "T1, UBXD3 (UniProt Q96LJ8)", "T1 sequence": "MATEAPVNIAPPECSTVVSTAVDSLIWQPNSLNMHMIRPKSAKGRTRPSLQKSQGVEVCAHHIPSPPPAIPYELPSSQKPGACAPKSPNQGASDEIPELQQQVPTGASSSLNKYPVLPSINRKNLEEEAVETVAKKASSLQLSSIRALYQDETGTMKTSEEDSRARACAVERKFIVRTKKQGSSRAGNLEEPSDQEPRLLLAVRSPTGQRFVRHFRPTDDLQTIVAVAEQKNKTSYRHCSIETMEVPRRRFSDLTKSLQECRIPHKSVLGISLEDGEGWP"}, "UCHL1 (human)": {"system": "UCHL1 (human)"}}, "note": "Values joined by “and” are separate entries in the source; they are usually repeats but may differ in a detail not shown here. Equal values may be shown once. The list shows a part of the results. For some assays here: The exact form of the protein is not confirmed."}
{"sequence": "GGGAGGCTGAGGCAGG [G4-1 biotinylated (PQS2)]", "values": [{"measurement": "binding signal", "setting": "UBE2F (human)", "result": -0.309, "unit": "z-score"}, {"measurement": "binding signal", "setting": "UBE2G2 (human)", "result": -0.297, "unit": "z-score"}, {"measurement": "binding signal", "setting": "UBE2H (human)", "result": -0.334, "unit": "z-score"}, {"measurement": "binding signal", "setting": "UBE2L6 (human)", "result": "-0.35 z-score and -0.283 z-score"}, {"measurement": "binding signal", "setting": "UBE2O (human)", "result": -0.331, "unit": "z-score"}, {"measurement": "binding signal", "setting": "UBE2R2 (human)", "result": -0.252, "unit": "z-score"}, {"measurement": "binding signal", "setting": "UBE2T (human)", "result": -0.316, "unit": "z-score"}, {"measurement": "binding signal", "setting": "UBE2Z (human)", "result": -0.33, "unit": "z-score"}, {"measurement": "binding signal", "setting": "UBE3C (human)", "result": -0.344, "unit": "z-score"}, {"measurement": "binding signal", "setting": "UBIAD1 (human)", "result": -0.304, "unit": "z-score"}, {"measurement": "binding signal", "setting": "UBL3 (human)", "result": -0.236, "unit": "z-score"}, {"measurement": "binding signal", "setting": "UBOX5 (human)", "result": -0.323, "unit": "z-score"}, {"measurement": "binding signal", "setting": "UBQLN1 (human)", "result": -0.373, "unit": "z-score"}, {"measurement": "binding signal", "setting": "UBQLN2 (human)", "result": -0.358, "unit": "z-score"}, {"measurement": "binding signal", "setting": "UBR2 (human)", "result": -0.315, "unit": "z-score"}, {"measurement": "binding signal", "setting": "UBTD2 (human)", "result": -0.335, "unit": "z-score"}, {"measurement": "binding signal", "setting": "[1]", "result": -0.312, "unit": "z-score"}, {"measurement": "binding signal", "setting": "UBXD1 (human)", "result": -0.301, "unit": "z-score"}, {"measurement": "binding signal", "setting": "UBXD3", "result": 3.52, "unit": "z-score"}, {"measurement": "binding signal", "setting": "UCHL1 (human)", "result": -0.353, "unit": "z-score"}]}
